# The list shows a part of the results.
# Sequences of proteins named here, by UniProt entry; tags and fusion partners are left off.
# UniProt Q00987, whole entry, looked up: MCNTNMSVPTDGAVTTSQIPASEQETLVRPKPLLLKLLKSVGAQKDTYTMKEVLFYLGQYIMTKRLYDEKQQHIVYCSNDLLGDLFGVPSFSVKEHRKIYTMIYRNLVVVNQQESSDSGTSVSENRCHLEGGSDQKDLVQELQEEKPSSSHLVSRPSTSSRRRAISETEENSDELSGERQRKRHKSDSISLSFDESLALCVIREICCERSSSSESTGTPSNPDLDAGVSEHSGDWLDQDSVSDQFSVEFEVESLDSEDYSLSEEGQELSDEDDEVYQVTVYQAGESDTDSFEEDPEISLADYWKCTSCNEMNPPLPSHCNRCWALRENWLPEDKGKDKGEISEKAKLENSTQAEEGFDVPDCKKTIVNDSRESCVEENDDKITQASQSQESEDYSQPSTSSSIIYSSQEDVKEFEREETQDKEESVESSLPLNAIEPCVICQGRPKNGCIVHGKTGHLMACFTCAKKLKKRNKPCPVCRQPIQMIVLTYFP
# Compound: CC1Cc2ccccc2N1C(=O)C1CCCN(C1)C(=O)CCl (mixture of isomers) [TRIM25 ligand 11 (diastereomer mixture)]
# Assay: probe-labelled cysteine peptide fold change vs DMSO (competition) (log2 fold change); higher = less target engagement (more negative = stronger competition)
# Details: THP-1, incubation time: 4 h
# 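Note: competitive chemoproteomic profiling in live THP-1 cells with an iodoacetamide desthiobiotin (IA-DTB) probe, comparing probe-labelled peptide intensities in compound-treated cells against DMSO-treated controls.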
target,measurement,setting,value
MDM2_Q00987_77_QQHIVYCSNDLLGDLFGVPSFSVK (UniProt Q00987),probe-labelled cysteine peptide fold change,10 µM,0.283
same,probe-labelled cysteine peptide fold change,50 µM,0.41
